Assay [1] addresses BNIP3(1–158aa)-GST (human). Nature of the assay: affinity purification with mass spectrometry; GSH beads coated with NIX(1-182)-GST, BNIP3(1-158)-GST or GST, incubated overnight with HeLa cell lysate (100 mM KCl, 2.5 mM MgCl2, 20 mM Tris-HCl pH 7.4, 0.5% NP-40); label-free quantitative mass spectrometry; only the target purified.
The target in a further assay is NIX(1–182aa)-GST (human) (UniProt O60238). Described as above.

Sequences of proteins named here, by UniProt entry; tags and fusion partners are left off. Residues count along the entry.
UniProt O60238, residues 1-182: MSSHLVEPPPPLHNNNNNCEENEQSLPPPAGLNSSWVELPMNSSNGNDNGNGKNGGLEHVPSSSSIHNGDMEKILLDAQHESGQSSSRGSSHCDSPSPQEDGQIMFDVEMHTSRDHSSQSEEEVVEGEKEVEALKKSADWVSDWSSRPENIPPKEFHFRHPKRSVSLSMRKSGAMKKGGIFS

No constants are given. Whether binding was seen depends on the method and setting. Binding seen in cells or lysates may run through a third protein. A yes stands for co-enrichment or nearness to the bait. Other partners may have been found.

B1: PPTC7 (endogenous, HeLa) (protein, UniProt Q8NI37 69-304)
chain: RSADVLGVADGVGGWRDYGVDPSQFSGTLMRTCERLVKEGRFVPSNPIGILTTSYCELLQNKVPLLGSSTACIVVLDRTSHRLHTANLGDSGFLVVRGGEVVHRSDEQQHYFNTPFQLSIAPPEAEGVVLSDSPDAADSTSFDVQLGDIILTATDGLFDNMPDYMILQELKKLKNSNYESIQQTARSIAEQAHELAYDPNYMSPFAQFACDNGLNVRGGKPDDITVLLSIVAEYTD
For the molecule B1, the binding result (in assay [1]; with NIX(1–182aa)-GST (human)) was “binds” in each case.

B2: WIPI2 (endogenous, HeLa) (protein, UniProt Q9Y4P8 1-454)
chain: MNLASQSGEAGAGQLLFANFNQDNTEVKGASRAAGLGRRAVVWSLAVGSKSGYKFFSLSSVDKLEQIYECTDTEDVCIVERLFSSSLVAIVSLKAPRKLKVCHFKKGTEICNYSYSNTILAVKLNRQRLIVCLEESLYIHNIRDMKVLHTIRETPPNPAGLCALSINNDNCYLAYPGSATIGEVQVFDTINLRAANMIPAHDSPLAALAFDASGTKLATASEKGTVIRVFSIPEGQKLFEFRRGVKRCVSICSLAFSMDGMFLSASSNTETVHIFKLETVKEKPPEEPTTWTGYFGKVLMASTSYLPSQVTEMFNQGRAFATVRLPFCGHKNICSLATIQKIPRLLVGAADGYLYMYNLDPQEGGECALMKQHRLDGSLETTNEILDSASHDCPLVTQTYGAAAGKGTYVPSSPTRLAYTDDLGAVGGACLEDEASALRLDEDSEHPPMILRTD
In the case of B2, the binding result in the assay with NIX(1–182aa)-GST (human) is given as “binds”.
